Source: PubChem BioAssay AID1259308 (NCATS, 2017)

Assay: 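Genes whose loss raises luciferase production in HEK293 cells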 (primary screen)
System: human HEK293 embryonic kidney cells stably expressing firefly luciferase (HEK-CMV-Luc2-Hygro)
Reagents: single siRNA against human genes, 0.8 pmol siRNA per well
Duration: 72 h
Detection: 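Reporter luminescence and viable-cell signal on separate replicate plates, given as percent of non-targeting control and median/MAD z-scores, plus per-cell luciferase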
Scale: total luciferase, z-score: higher = more reporter protein produced
Rule for the call: 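An siRNA counts as active if its total luciferase robust z-score exceeds 3; genes with two or more such siRNAs out of three were retested with fresh siRNAs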
Calls: active = raised luciferase; inactive = no rise
Shown is a random part of about 59,000 reagents. Over the whole deposit, about 1,510 (2.6%) are marked active. 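Calls use total luciferase alone and ignore viability, so some active siRNAs may act by altering cell number.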 Unmarked entries are inactive. Reagents against one gene are numbered here. Not all columns of the deposit are shown. No sequences are given here.

TECTA (tectorin alpha) #1: total luciferase, z-score = -0.955
TECTA (tectorin alpha) #2: total luciferase, z-score = -0.883
TECTA (tectorin alpha) #3: total luciferase, z-score = -1.95
SSPOP (SCO-spondin, pseudogene) #1: total luciferase, z-score = -0.409
SSPOP (SCO-spondin, pseudogene) #2: total luciferase, z-score = 0.615
SSPOP (SCO-spondin, pseudogene) #3: total luciferase, z-score = 0.969
CIMAP3 (ciliary microtubule associated protein 3) #1: total luciferase, z-score = -0.138
CIMAP3 (ciliary microtubule associated protein 3) #2: total luciferase, z-score = -0.0665
CIMAP3 (ciliary microtubule associated protein 3) #3: total luciferase, z-score = -0.0434
GARIN3 (golgi associated RAB2 interactor family member 3) #1: total luciferase, z-score = -1.8
GARIN3 (golgi associated RAB2 interactor family member 3) #2: total luciferase, z-score = 0.0878
GARIN3 (golgi associated RAB2 interactor family member 3) #3: total luciferase, z-score = 0.221
ZSWIM1 (zinc finger SWIM-type containing 1) #1: total luciferase, z-score = -1.48
ZSWIM1 (zinc finger SWIM-type containing 1) #2: total luciferase, z-score = 1.73
ZSWIM1 (zinc finger SWIM-type containing 1) #3: total luciferase, z-score = -2.18
APOBEC3G (apolipoprotein B mRNA editing enzyme catalytic subunit 3G) #1: total luciferase, z-score = 2.34
APOBEC3G (apolipoprotein B mRNA editing enzyme catalytic subunit 3G) #2: total luciferase, z-score = 3.3 (active)
APOBEC3G (apolipoprotein B mRNA editing enzyme catalytic subunit 3G) #3: total luciferase, z-score = -1.37
PLA2G2A (phospholipase A2 group IIA) #1: total luciferase, z-score = -0.573
PLA2G2A (phospholipase A2 group IIA) #2: total luciferase, z-score = -0.454
PLA2G2A (phospholipase A2 group IIA) #3: total luciferase, z-score = 0.00221
SKA3 (spindle and kinetochore associated complex subunit 3) #1: total luciferase, z-score = -1.17
SKA3 (spindle and kinetochore associated complex subunit 3) #2: total luciferase, z-score = -0.902
SKA3 (spindle and kinetochore associated complex subunit 3) #3: total luciferase, z-score = 1.69
MMP3 (matrix metallopeptidase 3) #1: total luciferase, z-score = 0.918
MMP3 (matrix metallopeptidase 3) #2: total luciferase, z-score = 1.52
MMP3 (matrix metallopeptidase 3) #3: total luciferase, z-score = -1.06
AGBL5 (AGBL carboxypeptidase 5) #1: total luciferase, z-score = -0.21
AGBL5 (AGBL carboxypeptidase 5) #2: total luciferase, z-score = 3.46 (active)
AGBL5 (AGBL carboxypeptidase 5) #3: total luciferase, z-score = 0.0215
CCDC30 (coiled-coil domain containing 30) #1: total luciferase, z-score = -1.63
CCDC30 (coiled-coil domain containing 30) #2: total luciferase, z-score = 0.0706
CCDC30 (coiled-coil domain containing 30) #3: total luciferase, z-score = -1.01
CCDC30 (coiled-coil domain containing 30) #4: total luciferase, z-score = 0.889
CCDC30 (coiled-coil domain containing 30) #5: total luciferase, z-score = 0.745
CCDC30 (coiled-coil domain containing 30) #6: total luciferase, z-score = -0.841
